Read-outs that look alike come from different tables or passages of the source. No constants are given. Whether binding was seen depends on the method and setting. In cells and extracts the contact can be indirect. Some results given as binding are weak or reduced against the parent protein; the word gives no strength. For part of these data: Tags and fused reporters may be left off the sequences shown. Each block holds one molecule with its values, some of them ahead of it.
Assays:
Assay in all cases: co-IP
[1] = target: Flag-Myocardin (full-length Myocardin with Flag tag, Flag-pCDNA3.1-Myocardin) (UniProt Q8VIM5)
[2] = target: Flag-tagged Myocardin deletion mutant lacking N-terminal residues up to amino acid 194 (UniProt Q8VIM5)
[3] = target: Flag-tagged Myocardin deletion mutant lacking the first 268 amino acids (UniProt Q8VIM5)
[4] = target: Myc-Myocardin (UniProt Q8VIM5)
[5] = target: Myc-tagged STAT3 C-terminal deletion mutant lacking the residues downstream of amino acid 280 (UniProt P40763)
[6] = target: Myc-Myocardin (UniProt Q8VIM5); remark: listed apart in the source

Sequences of proteins named here, by UniProt entry; tags and fusion partners are left off. A change or cut given only in a name is not applied to a line headed by its entry. A line that says so, or that is headed by a name, gives the form on record, which may keep a tag or linker. Residues count along the entry.
UniProt Q8VIM5: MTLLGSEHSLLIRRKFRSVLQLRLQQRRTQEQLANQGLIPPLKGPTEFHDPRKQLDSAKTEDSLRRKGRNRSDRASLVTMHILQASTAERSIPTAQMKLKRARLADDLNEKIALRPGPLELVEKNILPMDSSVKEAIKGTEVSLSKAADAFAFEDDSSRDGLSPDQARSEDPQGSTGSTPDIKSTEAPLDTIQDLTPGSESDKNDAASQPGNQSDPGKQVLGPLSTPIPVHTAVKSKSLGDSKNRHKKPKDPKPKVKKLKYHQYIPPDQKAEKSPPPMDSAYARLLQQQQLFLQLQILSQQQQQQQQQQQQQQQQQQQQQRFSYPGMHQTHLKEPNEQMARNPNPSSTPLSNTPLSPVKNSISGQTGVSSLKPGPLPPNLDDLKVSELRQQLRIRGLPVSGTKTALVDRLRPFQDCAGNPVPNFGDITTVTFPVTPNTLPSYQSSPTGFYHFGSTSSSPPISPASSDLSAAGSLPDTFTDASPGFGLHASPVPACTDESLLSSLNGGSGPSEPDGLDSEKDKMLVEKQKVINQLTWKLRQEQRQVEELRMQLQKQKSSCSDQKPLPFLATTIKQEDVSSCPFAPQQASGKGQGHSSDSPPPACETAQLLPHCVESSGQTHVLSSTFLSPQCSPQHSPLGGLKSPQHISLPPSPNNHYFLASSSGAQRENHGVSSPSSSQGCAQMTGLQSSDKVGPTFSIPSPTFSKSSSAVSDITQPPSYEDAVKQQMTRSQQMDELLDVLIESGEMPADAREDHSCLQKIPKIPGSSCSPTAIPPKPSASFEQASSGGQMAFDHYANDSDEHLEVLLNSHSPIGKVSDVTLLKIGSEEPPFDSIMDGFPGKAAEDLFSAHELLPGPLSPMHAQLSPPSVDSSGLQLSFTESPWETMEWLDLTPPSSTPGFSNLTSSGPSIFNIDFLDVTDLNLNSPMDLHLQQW
Flag-tagged Myocardin deletion mutant lacking N-terminal residues up to amino acid 194: residues 195-935 of Q8VIM5
Flag-tagged Myocardin deletion mutant lacking the first 268 amino acids: residues 269-935 of Q8VIM5
UniProt P40763: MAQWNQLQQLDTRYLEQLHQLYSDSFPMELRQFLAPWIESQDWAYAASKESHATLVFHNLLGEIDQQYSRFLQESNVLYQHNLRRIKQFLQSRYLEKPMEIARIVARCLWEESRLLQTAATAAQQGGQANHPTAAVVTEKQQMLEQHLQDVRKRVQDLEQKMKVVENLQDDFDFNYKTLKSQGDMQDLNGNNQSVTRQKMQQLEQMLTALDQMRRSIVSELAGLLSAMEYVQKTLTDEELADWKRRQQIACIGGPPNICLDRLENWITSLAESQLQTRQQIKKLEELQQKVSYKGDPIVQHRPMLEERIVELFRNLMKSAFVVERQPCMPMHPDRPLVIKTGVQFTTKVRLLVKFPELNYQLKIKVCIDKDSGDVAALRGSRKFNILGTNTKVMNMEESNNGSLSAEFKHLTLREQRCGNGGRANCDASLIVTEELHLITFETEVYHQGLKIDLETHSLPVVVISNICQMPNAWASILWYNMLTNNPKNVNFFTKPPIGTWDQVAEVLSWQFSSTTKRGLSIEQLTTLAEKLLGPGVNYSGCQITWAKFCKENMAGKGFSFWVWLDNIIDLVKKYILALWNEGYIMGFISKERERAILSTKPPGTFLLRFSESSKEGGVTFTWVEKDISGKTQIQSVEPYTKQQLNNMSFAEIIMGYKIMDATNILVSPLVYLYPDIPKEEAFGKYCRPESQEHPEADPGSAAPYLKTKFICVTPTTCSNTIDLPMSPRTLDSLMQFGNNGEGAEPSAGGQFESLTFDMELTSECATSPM
Myc-tagged STAT3 C-terminal deletion mutant lacking the residues downstream of amino acid 280: residues 1-280 of P40763

binding [1]: binds | binding [2]: binds | binding [3]: no binding
Molecule: Myc-STAT3 (full-length STAT3 with Myc tag, Myc-pCDNA3.1-STAT3) (from UniProt P40763 1-770)

binding [6]: binds
B1: HA-SRF (protein, UniProt P11831 1-508)
chain: MLPTQAGAAAALGRGSALGGSLNRTPTGRPGGGGGTRGANGGRVPGNGAGLGPGRLEREAAAAAATTPAPTAGALYSGSEGDSESGEEEELGAERRGLKRSLSEMEIGMVVGGPEASAAATGGYGPVSGAVSGAKPGKKTRGRVKIKMEFIDNKLRRYTTFSKRKTGIMKKAYELSTLTGTQVLLLVASETGHVYTFATRKLQPMITSETGKALIQTCLNSPDSPPRSDPTTDQRMSATGFEETDLTYQVSESDSSGETKDTLKPAFTVTNLPGTTSTIQTAPSTSTTMQVSSGPSFPITNYLAPVSASVSPSAVSSANGTVLKSTGSGPVSSGGLMQLPTSFTLMPGGAVAQQVPVQAIQVHQAPQQASPSRDSSTDLTQTSSSGTVTLPATIMTSSVPTTVGGHMMYPSPHAVMYAPTSGLGDGSLTVLNAFSQAPSTMQVSHSQVQEPGGVPQVFLTASSGTVQIPVSAVQLHQMAVIGQQAGSSSNLTELQVVNLDTAHSTKSE

The remaining lines, values behind:

Molecule: STAT3 as over-expressed in the experiments of Fig. 6 (from UniProt P40763 1-770)
binding [4]: binds

Molecule: Flag-Myocardin (full-length Myocardin with Flag tag, Flag-pCDNA3.1-Myocardin) (from UniProt Q8VIM5 1-935)
binding [5]: binds

Reference: doi:10.1101/2020.11.21.392902
